For one molecule, binding results are on record in PMC7193638.

Sequences of proteins named here, by UniProt entry; tags and fusion partners are left off.
UniProt O77059: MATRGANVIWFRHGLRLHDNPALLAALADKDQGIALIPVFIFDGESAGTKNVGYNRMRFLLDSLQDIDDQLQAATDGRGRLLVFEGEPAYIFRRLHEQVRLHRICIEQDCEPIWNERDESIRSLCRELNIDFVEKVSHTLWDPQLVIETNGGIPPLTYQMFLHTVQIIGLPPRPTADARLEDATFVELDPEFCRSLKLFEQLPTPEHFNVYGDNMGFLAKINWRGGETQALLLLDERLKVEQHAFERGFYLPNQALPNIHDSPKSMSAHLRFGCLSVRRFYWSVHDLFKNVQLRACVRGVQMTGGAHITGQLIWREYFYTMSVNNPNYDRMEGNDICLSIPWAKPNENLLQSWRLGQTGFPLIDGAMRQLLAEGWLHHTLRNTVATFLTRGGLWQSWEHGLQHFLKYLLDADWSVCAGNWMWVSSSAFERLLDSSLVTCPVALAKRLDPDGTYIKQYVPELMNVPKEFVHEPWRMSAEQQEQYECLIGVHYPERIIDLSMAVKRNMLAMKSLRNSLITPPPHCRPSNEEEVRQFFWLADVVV

These are yes or no findings as the source states them, for the method shown. Some binding calls cover weakened binding; strength is not graded here.

The experiment concerns the target Cry of Drosophila melanogaster (DmCry), full length (Drosophila melanogaster) (UniProt O77059). In words: two-hybrid; UAS-GAL4 drop test with cloned ORFs: mated diploid cells, 10 µl of 10^6 cells/ml per drop, on SD-leu-trp and SD-leu-trp-his-ade plates, 3 days at 30 °C; empty pGBKT7-SfiI and pGADT7-SfiI as negative controls.

B1: IscA1 of Drosophila melanogaster (DmIscA1), full length (protein, UniProt Q8T3X9 1-130)
chain: MATRVVATATVRAVKGRKLIPTRAALTLTPAAVLRIKTLLQDKPDMVGLKVGVRQRGCNGLSYTLDYASQKDKLDEEVVQDGVKVFIDKKAQLSLLGTEMDFVESKLSSEFVFNNPNIKGTCGCGESFSM
With B1, the binding entry is recorded as “binds”.
